# How the values were obtained:
# [1] = tested on: gut microbiome; assay: Phase I healthy volunteer study: stool microbiome by shotgun metagenomic / 16S sequencing (alpha/beta diversity, taxa); format: in vivo, human; conditions: healthy subjects
# [2] = tested on: primary and secondary bile acids; assay: Phase I healthy volunteer study: stool bile acids by LC-MS; format: in vivo, human; conditions: healthy subjects, vancomycin 125 mg four times daily 10 days
# [3] = vancomycin 125 mg four times daily 10 days
smiles,measurement,setting,value
"CN[C@H](CC(C)C)C(=O)N[C@H]1C(=O)N[C@@H](CC(N)=O)C(=O)N[C@H]2C(=O)N[C@H]3C(=O)N[C@H](C(=O)N[C@H](C(=O)O)c4cc(O)cc(O)c4-c4cc3ccc4O)[C@H](O)c3ccc(c(Cl)c3)Oc3cc2cc(c3O[C@@H]2O[C@H](CO)[C@@H](O)[C@H](O)[C@H]2O[C@H]2C[C@](C)(N)[C@H](O)[C@H](C)O2)Oc2ccc(cc2Cl)[C@H]1O [Vancomycin, vancomycin, reference compound]",Proportional change (mean ± SE): Actinobacteria (phylum),[1]; Vancomycin 125 mg,−0.11 ± 0.05
same,Proportional change (mean ± SE): Bacteroidetes (phylum),[1]; Vancomycin 125 mg,−0.034 ± 0.024
same,Proportional change (mean ± SE): Firmicutes (phylum),[1]; Vancomycin 125 mg,−0.14 ± 0.058
same,Proportional change (mean ± SE): Fusobacteria (phylum),[1]; Vancomycin 125 mg,0.036 ± 0.015
same,Proportional change (mean ± SE): Proteobacteria (phylum),[1]; Vancomycin 125 mg,0.23 ± 0.045
same,Proportional change (mean ± SE): c_Actinobacteria,[1]; Vancomycin 125 mg,−0.074 ± 0.051
same,Proportional change (mean ± SE): c_Actinobacteria o_Bifidobacteriales,[1]; Vancomycin 125 mg,−0.080 ± 0.051
same,Proportional change (mean ± SE): c_Actinobacteria o_Bifidobacteriales f_Bifidobacteriaceae,[1]; Vancomycin 125 mg,−0.078 ± 0.051
same,Proportional change (mean ± SE): c_Bacilli,[1]; Vancomycin 125 mg,0.30 ± 0.043
same,Proportional change (mean ± SE): c_Bacilli o_Lactobacillales,[1]; Vancomycin 125 mg,0.30 ± 0.043
same,Proportional change (mean ± SE): c_Bacilli o_Lactobacillales f_Lactobacillaceae,[1]; Vancomycin 125 mg,0.28 ± 0.041
same,Proportional change (mean ± SE): c_Coriobacteriia,[1]; Vancomycin 125 mg,−0.038 ± 0.015
same,Proportional change (mean ± SE): c_Coriobacteriia o_Coriobacteriales,[1]; Vancomycin 125 mg,−0.031 ± 0.015
same,Proportional change (mean ± SE): c_Coriobacteriia o_Coriobacteriales f_Coriobacteriaceae,[1]; Vancomycin 125 mg,−0.032 ± 0.015
same,Proportional change (mean ± SE): c_Gammaproteobacteria,[1]; Vancomycin 125 mg,0.21 ± 0.045
same,Proportional change (mean ± SE): c_Gammaproteobacteria o_Enterobacterales,[1]; Vancomycin 125 mg,0.17 ± 0.042
same,Proportional change (mean ± SE): c_Gammaproteobacteria o_Enterobacterales f_Enterobacteriaceae,[1]; Vancomycin 125 mg,0.17 ± 0.041
same,"Pielous alpha diversity, average change ± standard deviation over the study time period",[1]; [3],−0.073 ± 0.024 (0.0016)
same,"Simpson's alpha diversity, average change ± standard deviation over the study time period",[1]; [3],−0.070 ± 0.023 (0.0020)
same,"Shannon alpha diversity, average change ± standard deviation over the study time period","[1]; vancomycin 125 mg four times daily 10 days, p vs placebo in brackets",−0.36 ± 0.11 (0.0014)
same,"1° bile acids, average change ± standard deviation",[2],963 ± 146 (<0.001) ug/L
same,"1°:2° bile acid ratio, average change ± standard deviation",[2],19 ± 3.5 (<0.0001)
same,"2° bile acids, average change ± standard deviation",[2],"−1,266 ± 570 (0.030) ug/L"
